This is one part of the list.
Columns and labels:
Assay in all cases: log2 fold change, soluble protein after heating vs DMSO (PISA); higher = thermal stabilisation; K562 cells, 10 uM, 30 min; active = over 0.2 and 3.5 SD of the protein, either way, in both replicates (recomputed)
[1] = compound: CC1=C(C=C(C=C1)NC(=O)C2=CC(=CC=C2)C(C)(C)C#N)NC3=CC4=C(C=C3)N=CN(C4=O)C
How it was run: (§1)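 K562 cells at 2×10^6 cells/mL were treated for 30 min with 10 μM compound, and aliquots were heated for 3 min over 48°C-58°C before pooling. Extraction used PBS with 0.5% NP-40 at 4°C, and soluble protein was the supernatant after 21,000xg for 90 min, measured by TMTpro 16plex LC-MS/MS with channel sums equalised. Thermal stability values, relative to control samples and from duplicates, are log2 fold changes.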

Sequences of proteins named here, by UniProt entry; tags and fusion partners are left off. A change or cut given only in a name is not applied to a line headed by its entry.
UniProt Q99729: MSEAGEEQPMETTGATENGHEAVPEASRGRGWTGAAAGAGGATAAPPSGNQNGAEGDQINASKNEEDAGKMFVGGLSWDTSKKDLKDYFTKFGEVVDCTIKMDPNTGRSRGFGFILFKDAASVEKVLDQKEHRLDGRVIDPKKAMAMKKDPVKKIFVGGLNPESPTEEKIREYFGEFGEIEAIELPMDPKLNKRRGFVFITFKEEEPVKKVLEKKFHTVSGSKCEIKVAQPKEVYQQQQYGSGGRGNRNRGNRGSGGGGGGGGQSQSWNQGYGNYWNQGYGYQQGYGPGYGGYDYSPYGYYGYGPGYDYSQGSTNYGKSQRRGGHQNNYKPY
UniProt P55795: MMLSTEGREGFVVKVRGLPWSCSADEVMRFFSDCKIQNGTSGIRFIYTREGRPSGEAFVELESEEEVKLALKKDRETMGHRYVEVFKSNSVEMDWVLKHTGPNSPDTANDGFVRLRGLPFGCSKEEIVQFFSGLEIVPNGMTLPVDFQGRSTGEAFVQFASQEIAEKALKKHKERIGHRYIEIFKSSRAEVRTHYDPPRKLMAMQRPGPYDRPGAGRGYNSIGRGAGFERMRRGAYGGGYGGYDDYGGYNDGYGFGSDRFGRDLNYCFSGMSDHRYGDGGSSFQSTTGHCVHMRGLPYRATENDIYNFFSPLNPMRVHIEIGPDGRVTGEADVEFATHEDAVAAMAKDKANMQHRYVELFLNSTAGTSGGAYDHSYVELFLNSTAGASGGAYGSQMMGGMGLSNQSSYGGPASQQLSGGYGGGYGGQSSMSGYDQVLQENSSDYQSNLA
UniProt P10809, whole entry, looked up: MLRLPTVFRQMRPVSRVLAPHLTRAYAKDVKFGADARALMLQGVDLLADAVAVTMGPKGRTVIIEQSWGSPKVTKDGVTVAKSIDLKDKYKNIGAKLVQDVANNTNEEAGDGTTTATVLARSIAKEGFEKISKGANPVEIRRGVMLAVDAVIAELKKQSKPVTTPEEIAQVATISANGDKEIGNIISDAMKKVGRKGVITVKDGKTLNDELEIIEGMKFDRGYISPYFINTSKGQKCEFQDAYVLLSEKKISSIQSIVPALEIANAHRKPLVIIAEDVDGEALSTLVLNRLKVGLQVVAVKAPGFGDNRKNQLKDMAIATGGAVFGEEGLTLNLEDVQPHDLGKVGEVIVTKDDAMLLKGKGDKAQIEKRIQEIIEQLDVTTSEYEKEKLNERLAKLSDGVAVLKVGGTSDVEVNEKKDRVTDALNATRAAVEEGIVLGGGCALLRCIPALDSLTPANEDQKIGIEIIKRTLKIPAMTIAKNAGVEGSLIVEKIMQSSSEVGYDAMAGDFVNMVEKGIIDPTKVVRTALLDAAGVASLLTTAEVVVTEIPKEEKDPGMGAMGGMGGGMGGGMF
UniProt P52597: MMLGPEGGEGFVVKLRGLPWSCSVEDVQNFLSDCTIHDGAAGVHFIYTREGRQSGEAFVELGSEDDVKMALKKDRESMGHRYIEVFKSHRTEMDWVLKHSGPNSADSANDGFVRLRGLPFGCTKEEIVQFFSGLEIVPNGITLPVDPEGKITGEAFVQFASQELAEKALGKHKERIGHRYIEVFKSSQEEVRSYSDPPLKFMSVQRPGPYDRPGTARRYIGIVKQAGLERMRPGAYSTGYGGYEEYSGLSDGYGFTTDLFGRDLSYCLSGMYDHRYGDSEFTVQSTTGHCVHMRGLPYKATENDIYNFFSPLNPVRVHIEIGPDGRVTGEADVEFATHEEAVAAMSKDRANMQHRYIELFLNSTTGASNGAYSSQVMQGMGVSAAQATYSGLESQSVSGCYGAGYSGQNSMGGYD
UniProt P52789: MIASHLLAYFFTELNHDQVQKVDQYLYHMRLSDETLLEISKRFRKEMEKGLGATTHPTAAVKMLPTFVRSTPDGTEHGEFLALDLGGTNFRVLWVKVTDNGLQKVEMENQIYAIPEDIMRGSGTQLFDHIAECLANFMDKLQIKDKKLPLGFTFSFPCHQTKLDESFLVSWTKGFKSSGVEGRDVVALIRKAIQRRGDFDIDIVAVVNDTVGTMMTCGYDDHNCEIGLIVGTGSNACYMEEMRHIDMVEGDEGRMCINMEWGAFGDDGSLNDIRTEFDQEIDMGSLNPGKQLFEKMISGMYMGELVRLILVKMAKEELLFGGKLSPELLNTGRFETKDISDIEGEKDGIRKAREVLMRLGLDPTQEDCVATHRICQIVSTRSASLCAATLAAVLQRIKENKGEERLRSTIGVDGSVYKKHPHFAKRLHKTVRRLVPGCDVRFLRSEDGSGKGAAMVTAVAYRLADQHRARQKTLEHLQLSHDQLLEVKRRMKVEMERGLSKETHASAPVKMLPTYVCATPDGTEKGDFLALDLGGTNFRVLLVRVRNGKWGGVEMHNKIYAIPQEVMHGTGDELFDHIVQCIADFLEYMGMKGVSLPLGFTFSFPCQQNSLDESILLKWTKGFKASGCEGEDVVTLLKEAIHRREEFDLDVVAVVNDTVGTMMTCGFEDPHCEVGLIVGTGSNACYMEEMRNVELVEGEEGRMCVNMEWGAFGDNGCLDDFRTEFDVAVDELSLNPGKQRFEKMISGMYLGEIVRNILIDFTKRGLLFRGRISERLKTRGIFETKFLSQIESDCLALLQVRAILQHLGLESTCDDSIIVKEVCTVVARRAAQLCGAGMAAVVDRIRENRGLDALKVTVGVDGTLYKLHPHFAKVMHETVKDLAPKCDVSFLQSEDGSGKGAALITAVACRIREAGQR
UniProt Q14527: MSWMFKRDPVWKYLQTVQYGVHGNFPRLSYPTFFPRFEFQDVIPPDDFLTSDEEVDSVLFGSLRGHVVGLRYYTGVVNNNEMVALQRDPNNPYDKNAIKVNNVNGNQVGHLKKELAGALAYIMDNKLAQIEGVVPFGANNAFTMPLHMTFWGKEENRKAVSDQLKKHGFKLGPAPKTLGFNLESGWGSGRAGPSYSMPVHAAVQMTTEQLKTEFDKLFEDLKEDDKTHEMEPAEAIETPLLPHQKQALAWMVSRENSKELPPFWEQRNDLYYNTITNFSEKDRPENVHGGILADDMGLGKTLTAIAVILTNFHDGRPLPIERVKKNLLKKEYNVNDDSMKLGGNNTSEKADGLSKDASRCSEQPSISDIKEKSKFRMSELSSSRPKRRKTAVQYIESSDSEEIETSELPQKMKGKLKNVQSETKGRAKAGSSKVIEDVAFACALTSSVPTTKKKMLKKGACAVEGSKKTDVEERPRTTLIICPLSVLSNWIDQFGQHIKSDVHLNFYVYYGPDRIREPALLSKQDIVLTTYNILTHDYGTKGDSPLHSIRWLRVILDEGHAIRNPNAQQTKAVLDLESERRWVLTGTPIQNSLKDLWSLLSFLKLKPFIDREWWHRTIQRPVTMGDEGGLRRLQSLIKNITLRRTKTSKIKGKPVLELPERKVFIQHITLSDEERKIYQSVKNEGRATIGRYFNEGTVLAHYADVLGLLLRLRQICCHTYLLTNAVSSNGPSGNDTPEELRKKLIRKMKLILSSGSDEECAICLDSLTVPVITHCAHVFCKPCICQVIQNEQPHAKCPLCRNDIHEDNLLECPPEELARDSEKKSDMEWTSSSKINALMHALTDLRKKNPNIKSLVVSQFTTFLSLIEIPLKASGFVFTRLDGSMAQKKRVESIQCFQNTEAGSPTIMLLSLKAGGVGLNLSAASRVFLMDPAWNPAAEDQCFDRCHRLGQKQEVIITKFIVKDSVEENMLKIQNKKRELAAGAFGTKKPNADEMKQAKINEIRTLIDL
UniProt Q9Y547: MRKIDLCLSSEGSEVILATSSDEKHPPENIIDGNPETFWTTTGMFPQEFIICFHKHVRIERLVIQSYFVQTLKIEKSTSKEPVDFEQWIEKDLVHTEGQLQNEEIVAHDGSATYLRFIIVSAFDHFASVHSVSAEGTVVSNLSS
UniProt Q9NP66: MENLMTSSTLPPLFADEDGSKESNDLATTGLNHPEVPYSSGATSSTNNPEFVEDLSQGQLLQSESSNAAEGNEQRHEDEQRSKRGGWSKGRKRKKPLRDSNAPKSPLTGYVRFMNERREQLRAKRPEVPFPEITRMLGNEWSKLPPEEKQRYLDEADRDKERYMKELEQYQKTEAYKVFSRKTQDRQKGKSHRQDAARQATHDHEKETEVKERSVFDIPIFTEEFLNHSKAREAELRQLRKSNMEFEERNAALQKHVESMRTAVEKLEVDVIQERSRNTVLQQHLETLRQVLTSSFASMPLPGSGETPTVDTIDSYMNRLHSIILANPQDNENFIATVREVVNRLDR
UniProt Q96JB3: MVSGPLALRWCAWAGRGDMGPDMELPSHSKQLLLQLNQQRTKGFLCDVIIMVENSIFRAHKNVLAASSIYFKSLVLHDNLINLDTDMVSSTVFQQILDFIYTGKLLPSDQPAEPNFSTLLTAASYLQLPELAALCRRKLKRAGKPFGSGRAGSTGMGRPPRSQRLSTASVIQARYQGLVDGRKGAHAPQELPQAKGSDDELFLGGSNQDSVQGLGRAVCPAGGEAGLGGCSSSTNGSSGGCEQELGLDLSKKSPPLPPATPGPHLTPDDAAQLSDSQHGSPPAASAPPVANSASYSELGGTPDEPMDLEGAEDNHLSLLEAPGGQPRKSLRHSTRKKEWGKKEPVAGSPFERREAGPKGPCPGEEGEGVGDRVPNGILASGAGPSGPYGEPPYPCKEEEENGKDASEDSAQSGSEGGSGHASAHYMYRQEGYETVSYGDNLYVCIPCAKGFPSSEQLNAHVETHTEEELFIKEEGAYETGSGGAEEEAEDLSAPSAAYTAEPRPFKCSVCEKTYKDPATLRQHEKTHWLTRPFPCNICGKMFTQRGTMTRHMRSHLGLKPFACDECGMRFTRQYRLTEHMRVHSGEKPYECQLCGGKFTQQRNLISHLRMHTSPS
UniProt P22626: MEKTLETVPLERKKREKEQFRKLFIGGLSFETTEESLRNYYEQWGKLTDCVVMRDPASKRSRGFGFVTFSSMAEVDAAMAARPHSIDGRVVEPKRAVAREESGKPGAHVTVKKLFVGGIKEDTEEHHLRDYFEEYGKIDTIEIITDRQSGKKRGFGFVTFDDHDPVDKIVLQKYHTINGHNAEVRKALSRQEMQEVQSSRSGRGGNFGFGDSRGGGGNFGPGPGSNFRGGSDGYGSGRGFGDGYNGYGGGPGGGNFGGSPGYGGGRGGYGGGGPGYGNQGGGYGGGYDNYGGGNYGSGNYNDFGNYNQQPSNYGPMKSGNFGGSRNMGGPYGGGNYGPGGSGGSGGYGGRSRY
UniProt P07910: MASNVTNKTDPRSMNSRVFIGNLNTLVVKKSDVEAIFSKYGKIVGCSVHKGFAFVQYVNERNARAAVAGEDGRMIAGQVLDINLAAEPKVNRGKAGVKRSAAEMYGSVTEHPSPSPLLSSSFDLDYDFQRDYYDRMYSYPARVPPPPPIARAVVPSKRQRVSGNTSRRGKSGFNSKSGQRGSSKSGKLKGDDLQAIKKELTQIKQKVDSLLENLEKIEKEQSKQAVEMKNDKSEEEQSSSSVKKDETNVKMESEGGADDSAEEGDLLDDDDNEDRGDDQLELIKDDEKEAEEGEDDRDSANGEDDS
UniProt Q1KMD3: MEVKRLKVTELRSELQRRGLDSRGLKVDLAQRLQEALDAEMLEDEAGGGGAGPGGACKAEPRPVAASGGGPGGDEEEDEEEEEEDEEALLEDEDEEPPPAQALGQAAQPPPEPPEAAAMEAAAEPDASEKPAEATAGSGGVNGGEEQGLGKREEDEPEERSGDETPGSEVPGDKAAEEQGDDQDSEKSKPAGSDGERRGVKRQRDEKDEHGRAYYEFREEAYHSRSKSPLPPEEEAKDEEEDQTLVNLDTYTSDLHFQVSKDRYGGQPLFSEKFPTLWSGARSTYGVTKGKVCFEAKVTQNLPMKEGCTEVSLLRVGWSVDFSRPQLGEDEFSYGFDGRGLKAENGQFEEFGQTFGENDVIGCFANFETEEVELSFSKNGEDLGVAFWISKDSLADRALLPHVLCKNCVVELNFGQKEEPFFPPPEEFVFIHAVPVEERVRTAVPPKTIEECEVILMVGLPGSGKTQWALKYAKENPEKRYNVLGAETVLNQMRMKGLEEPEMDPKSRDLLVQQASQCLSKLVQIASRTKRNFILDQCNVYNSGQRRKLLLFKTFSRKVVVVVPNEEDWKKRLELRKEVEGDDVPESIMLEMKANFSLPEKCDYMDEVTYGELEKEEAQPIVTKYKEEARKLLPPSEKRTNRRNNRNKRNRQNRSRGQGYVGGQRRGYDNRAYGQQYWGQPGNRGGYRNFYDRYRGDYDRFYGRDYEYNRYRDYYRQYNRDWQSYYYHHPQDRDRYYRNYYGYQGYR

[2] = compound: CC1=C(C=C(C=C1)NC(=O)C2=CC(=CC=C2)N(C)C)NC(=O)C3=CC=C(C=C3)O
How it was run: as §1

[3] = compound: CC1=CC=C(C=C1)SC2=C3C=C(SC3=CN=C2)C(=O)N
How it was run: as §1

[4] = compound: CC1=NC(=CC=C1)C2=C(N=C(N2)C(C)(C)C)C3=CC4=NC=CN=C4C=C3
How it was run: as §1

Nexturastat A = compound: CCCCN(Cc1ccc(C(=O)NO)cc1)C(=O)Nc1ccccc1 [Nexturastat A]
How it was run: as §1

vemurafenib = compound: CCCS(=O)(=O)Nc1ccc(F)c(C(=O)c2c[nH]c3ncc(-c4ccc(Cl)cc4)cc23)c1F [vemurafenib]
How it was run: as §1

[5] = compound: CCCS(=O)(=O)Nc1ccc(F)c(C(=O)c2c[nH]c3ncc(Cl)cc23)c1F
How it was run: as §1

[6] = compound: CCCc1cc(C)[nH]c(=O)c1CNC(=O)c1cc(-c2ccnc(N3CCN(C)CC3)c2)cc2c1cnn2C(C)C
How it was run: as §1

givinostat = compound: CCN(CC)Cc1ccc2cc(COC(=O)Nc3ccc(C(=O)NO)cc3)ccc2c1 [givinostat]
How it was run: as §1

barasertib = compound: CCN(CCCOc1ccc2c(Nc3cc(CC(=O)Nc4cccc(F)c4)[nH]n3)ncnc2c1)CCOP(=O)(O)O [barasertib]
How it was run: as §1

[7] = compound: CC[C@@H]1C(=O)N(C)c2cnc(Nc3ccc(C(=O)NC4CCN(C)CC4)cc3OC)nc2N1C1CCCC1
How it was run: as §1

volasertib = compound: CC[C@@H]1C(=O)N(C)c2cnc(Nc3ccc(C(=O)N[C@H]4CC[C@H](N5CCN(CC6CC6)CC5)CC4)cc3OC)nc2N1C(C)C [volasertib]
How it was run: as §1

[8] = compound: CC[C@H](C)N1C=C(C2=C(C=C(C=C21)C3=CN=C(C=C3)N4CCNCC4)C(=O)NCC5=C(C=C(NC5=O)C)C)C
How it was run: as §1

epoxomicin = compound: CC[C@H](C)[C@@H](C(=O)N[C@@H]([C@@H](C)O)C(=O)N[C@@H](CC(C)C)C(=O)[C@]1(CO1)C)NC(=O)[C@H]([C@@H](C)CC)N(C)C(=O)C [epoxomicin]
How it was run: as §1

[9] = compound: CCn1c(C(=O)N(C2CC2)C2CC2)cc2c3c(ncn3C)c(Nc3cc(C)n(C)n3)nc21
How it was run: as §1

[10] = compound: CCn1cc(-c2ccnc3[nH]c(-c4cccc(CN(C)C)c4)cc23)c(-c2ccc(NC(=O)N(C)C)cc2)n1
How it was run: as §1

[11] = compound: CN(C)CC(=O)Nc1ccc2[nH]c(=O)c3ccccc3c2c1
How it was run: as §1

rosiglitazone = compound: CN(CCOC1=CC=C(C=C1)C[C@H]2C(=O)NC(=O)S2)C3=CC=CC=N3 (racemic) [rosiglitazone]
How it was run: as §1

[12] = compound: CN1C2=C(C3=C1C(=O)N(N=C3)CC4=CC(=CC=C4)N)SC(=C2)S(=O)C
How it was run: as §1

[13] = compound: CN1CCC(CNc2ccc3ncc(-c4cccc(OC(F)(F)F)c4)n3n2)CC1
How it was run: as §1

Target | log2 fold change [1] | log2 fold change [2] | log2 fold change [3] | log2 fold change [4] | log2 fold change (Nexturastat A) | log2 fold change (vemurafenib) | log2 fold change [5] | log2 fold change [6] | log2 fold change (givinostat) | log2 fold change (barasertib) | log2 fold change [7] | log2 fold change (volasertib) | log2 fold change [8] | log2 fold change (epoxomicin) | log2 fold change [9] | log2 fold change [10] | log2 fold change [11] | log2 fold change (rosiglitazone) | log2 fold change [12] | log2 fold change [13]
HNRNPAB isoform 3 (UniProt Q99729) | inactive: -0.001 | inactive: 0.01 | inactive: -0.148 | inactive: -0.074 | inactive: 0.138 | inactive: -0.084 | inactive: -0.142 | inactive: -0.019 | inactive: -0.069 | inactive: -0.105 | inactive: 0.29 | inactive: 0.243 | inactive: -0.066 | inactive: -0.151 | inactive: -0.03 | inactive: 0.207 | inactive: -0.086 | inactive: -0.129 | inactive: 0.203 | inactive: 0.247
HNRNPH2 (UniProt P55795) | inactive: 0.064 | inactive: -0.027 | inactive: 0.079 | inactive: 0.058 | inactive: 0.044 | inactive: 0.048 | inactive: 0.208 | inactive: 0.095 | inactive: 0.109 | inactive: 0.014 | inactive: -0.119 | active: -0.667 | inactive: 0.073 | inactive: -0.004 | – | inactive: 0 | inactive: 0.069 | – | inactive: 0.087 | inactive: -0.06
HSPD1 (UniProt P10809) | inactive: -0.01 | inactive: 0.014 | inactive: -0.031 | inactive: 0.004 | inactive: -0.022 | inactive: -0.028 | inactive: -0.076 | inactive: -0.008 | inactive: 0.003 | inactive: 0.001 | inactive: -0.011 | inactive: 0.094 | inactive: -0.048 | inactive: 0.013 | inactive: 0.003 | inactive: 0.043 | inactive: -0.02 | inactive: -0.003 | inactive: -0.033 | inactive: 0.021
HNRNPF (UniProt P52597) | inactive: 0.076 | inactive: -0.005 | inactive: -0.032 | inactive: -0.017 | inactive: 0.036 | inactive: 0.106 | inactive: 0.101 | inactive: 0.027 | inactive: 0.051 | inactive: 0.047 | inactive: -0.049 | active: -0.587 | inactive: 0.128 | inactive: 0.009 | – | inactive: -0.027 | inactive: 0.051 | – | inactive: 0.052 | inactive: -0.153
HK2 (UniProt P52789) | active: -0.257 | inactive: -0.028 | inactive: 0 | inactive: 0.019 | inactive: 0.017 | inactive: 0.003 | inactive: 0.027 | inactive: -0.041 | inactive: -0.016 | inactive: 0.051 | inactive: -0.156 | active: -0.813 | inactive: 0.086 | inactive: 0.049 | – | inactive: 0.016 | inactive: -0.001 | – | inactive: -0.028 | inactive: -0.038
HNRNPK isoform 2 (UniProt P61978) | inactive: 0.034 | inactive: 0.004 | inactive: -0.003 | inactive: 0.075 | inactive: 0.022 | inactive: 0.048 | inactive: 0.048 | inactive: -0.031 | inactive: 0.063 | inactive: 0.024 | inactive: -0.143 | active: -0.271 | inactive: 0.062 | inactive: 0.003 | – | inactive: -0.027 | inactive: 0 | – | inactive: -0.01 | active: -0.216
HLTF (UniProt Q14527) | inactive: 0.04 | inactive: -0.014 | inactive: -0.056 | inactive: 0.038 | inactive: 0.019 | inactive: 0.047 | inactive: 0.048 | inactive: 0.109 | inactive: 0.018 | inactive: 0.007 | inactive: -0.063 | inactive: -0.178 | inactive: 0.017 | inactive: 0.158 | – | inactive: -0.113 | inactive: 0.056 | – | inactive: -0.009 | inactive: 0.201
HIST2H2BF isoform 2 (UniProt Q5QNW6) | inactive: -0.094 | inactive: -0.034 | inactive: -0.202 | inactive: -0.009 | active: 0.78 | inactive: -0.284 | inactive: 0.529 | inactive: 0.1 | inactive: 0.331 | inactive: -0.157 | inactive: -0.043 | inactive: 0.153 | inactive: -0.079 | inactive: -0.243 | – | inactive: 0.231 | inactive: -0.22 | – | inactive: 0.398 | inactive: 0.084
HSPB11 (UniProt Q9Y547) | inactive: -0.003 | inactive: -0.064 | inactive: 0.087 | inactive: 0.03 | inactive: 0.004 | inactive: 0.016 | inactive: 0.044 | inactive: 0.071 | inactive: 0.101 | inactive: 0.058 | inactive: -0.019 | inactive: 0.019 | inactive: 0.062 | inactive: -0.015 | inactive: -0.106 | inactive: -0.117 | inactive: 0.03 | inactive: 0.068 | inactive: -0.11 | inactive: 0
HNRNPH1 (UniProt P31943) | inactive: 0.077 | inactive: -0.044 | inactive: 0.005 | inactive: 0.047 | inactive: 0.201 | inactive: 0.086 | inactive: 0.144 | inactive: 0.029 | inactive: 0.115 | inactive: 0.05 | inactive: -0.124 | active: -0.583 | inactive: 0.1 | inactive: 0.018 | – | inactive: -0.025 | inactive: 0.072 | – | inactive: 0.083 | inactive: -0.247
HMG20A (UniProt Q9NP66) | inactive: -0.051 | inactive: -0.009 | inactive: -0.153 | inactive: -0.016 | inactive: 0.033 | inactive: 0.027 | inactive: 0.016 | inactive: 0.149 | inactive: 0.03 | inactive: 0.024 | inactive: 0.083 | inactive: -0.155 | inactive: 0.029 | inactive: -0.107 | – | inactive: 0 | inactive: 0.053 | – | inactive: 0.143 | inactive: -0.003
HIC2 (UniProt Q96JB3) | inactive: 0.039 | inactive: 0.028 | inactive: -0.005 | inactive: -0.093 | inactive: 0.131 | inactive: 0.009 | inactive: 0.123 | inactive: -0.005 | inactive: -0.035 | inactive: -0.033 | inactive: 0.028 | inactive: -0.19 | inactive: 0.032 | inactive: -0.134 | – | inactive: 0.128 | inactive: -0.035 | – | inactive: 0.164 | inactive: -0.006
HTRA2 (UniProt O43464) | inactive: 0.011 | inactive: -0.02 | inactive: 0.032 | inactive: 0.044 | inactive: -0.046 | inactive: -0.006 | inactive: -0.022 | inactive: -0.048 | inactive: -0.027 | inactive: 0.009 | inactive: 0.007 | inactive: -0.096 | inactive: -0.021 | inactive: -0.03 | inactive: 0.011 | inactive: 0.03 | inactive: -0.021 | inactive: -0.008 | inactive: -0.024 | inactive: -0.045
HNRNPA2B1 (UniProt P22626) | inactive: 0.051 | inactive: 0.072 | inactive: -0.151 | inactive: -0.1 | inactive: 0.256 | inactive: -0.031 | inactive: -0.037 | inactive: 0.035 | inactive: 0.036 | inactive: -0.16 | inactive: 0.215 | inactive: 0.116 | inactive: -0.056 | inactive: -0.391 | inactive: 0.022 | inactive: 0.322 | inactive: -0.135 | inactive: -0.179 | inactive: 0.365 | inactive: 0.226
ICAM1 (UniProt P05362) | inactive: -0.055 | inactive: 0.016 | inactive: 0.033 | inactive: -0.016 | inactive: 0.02 | inactive: 0.018 | inactive: -0.034 | inactive: 0.001 | inactive: -0.014 | inactive: -0.021 | inactive: 0.155 | inactive: 0.078 | inactive: -0.028 | inactive: 0.008 | – | inactive: 0.012 | inactive: -0.039 | – | inactive: -0.073 | active: 0.223
HNRNPC isoform 2 (UniProt P07910) | inactive: 0.276 | inactive: -0.074 | inactive: -0.349 | inactive: -0.045 | inactive: 0.449 | inactive: -0.055 | inactive: -0.191 | inactive: 0.028 | inactive: 0.241 | inactive: -0.095 | inactive: 0.238 | inactive: 0.276 | inactive: 0.017 | inactive: -0.423 | – | inactive: 0.147 | inactive: -0.151 | – | inactive: 0.467 | inactive: -0.067
HNRNPUL2 (UniProt Q1KMD3) | inactive: 0.009 | inactive: 0.008 | inactive: -0.074 | inactive: -0.032 | inactive: 0.109 | inactive: -0.047 | inactive: -0.027 | inactive: -0.002 | inactive: 0.047 | inactive: -0.027 | inactive: 0.172 | inactive: 0.135 | inactive: -0.023 | inactive: -0.084 | – | inactive: 0.092 | inactive: -0.012 | – | inactive: 0.131 | inactive: -0.013

Given in markdown: part of the list above

| Target | log2 fold change [1] | log2 fold change [2] | log2 fold change [3] | log2 fold change [4] | log2 fold change (Nexturastat A) | log2 fold change (vemurafenib) | log2 fold change [5] | log2 fold change [6] | log2 fold change (givinostat) | log2 fold change (barasertib) | log2 fold change [7] | log2 fold change (volasertib) | log2 fold change [8] | log2 fold change (epoxomicin) | log2 fold change [9] | log2 fold change [10] | log2 fold change [11] | log2 fold change (rosiglitazone) | log2 fold change [12] | log2 fold change [13] |
| --- | --- | --- | --- | --- | --- | --- | --- | --- | --- | --- | --- | --- | --- | --- | --- | --- | --- | --- | --- | --- |
| HNRNPK isoform 2 (UniProt P61978) | inactive: 0.034 | inactive: 0.004 | inactive: -0.003 | inactive: 0.075 | inactive: 0.022 | inactive: 0.048 | inactive: 0.048 | inactive: -0.031 | inactive: 0.063 | inactive: 0.024 | inactive: -0.143 | active: -0.271 | inactive: 0.062 | inactive: 0.003 | – | inactive: -0.027 | inactive: 0 | – | inactive: -0.01 | active: -0.216 |
| HLTF (UniProt Q14527) | inactive: 0.04 | inactive: -0.014 | inactive: -0.056 | inactive: 0.038 | inactive: 0.019 | inactive: 0.047 | inactive: 0.048 | inactive: 0.109 | inactive: 0.018 | inactive: 0.007 | inactive: -0.063 | inactive: -0.178 | inactive: 0.017 | inactive: 0.158 | – | inactive: -0.113 | inactive: 0.056 | – | inactive: -0.009 | inactive: 0.201 |

Reference: the supplement of paper PMC10849652
